Data from US6372772B1, “Inhibitors of redox signaling and methods of using same” (Prolx Pharmaceuticals Corporation, priority 1997, dated 2002).
Converted amounts (≈) assume the structure as drawn. Structures were worked out from names or drawings and are uncertain.

Protein sequences, listed by entry. Tags and fused reporters are not part of them. Residues count along the entry.
UniProt Q16881, 151-649: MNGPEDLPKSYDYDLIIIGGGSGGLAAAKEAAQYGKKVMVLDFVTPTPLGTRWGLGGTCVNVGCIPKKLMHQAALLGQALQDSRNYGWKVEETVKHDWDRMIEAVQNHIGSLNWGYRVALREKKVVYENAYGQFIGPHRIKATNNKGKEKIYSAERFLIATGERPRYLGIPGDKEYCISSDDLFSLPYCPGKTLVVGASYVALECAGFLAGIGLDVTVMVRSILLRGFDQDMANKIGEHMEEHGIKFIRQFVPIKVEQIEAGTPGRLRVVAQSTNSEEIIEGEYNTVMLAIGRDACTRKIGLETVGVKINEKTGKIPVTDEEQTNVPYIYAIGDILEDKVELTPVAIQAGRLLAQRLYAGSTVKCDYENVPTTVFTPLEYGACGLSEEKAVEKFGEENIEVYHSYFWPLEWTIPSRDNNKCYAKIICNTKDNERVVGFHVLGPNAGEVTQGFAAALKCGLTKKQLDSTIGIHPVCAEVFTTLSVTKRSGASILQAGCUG
UniProt P00390, 44-522: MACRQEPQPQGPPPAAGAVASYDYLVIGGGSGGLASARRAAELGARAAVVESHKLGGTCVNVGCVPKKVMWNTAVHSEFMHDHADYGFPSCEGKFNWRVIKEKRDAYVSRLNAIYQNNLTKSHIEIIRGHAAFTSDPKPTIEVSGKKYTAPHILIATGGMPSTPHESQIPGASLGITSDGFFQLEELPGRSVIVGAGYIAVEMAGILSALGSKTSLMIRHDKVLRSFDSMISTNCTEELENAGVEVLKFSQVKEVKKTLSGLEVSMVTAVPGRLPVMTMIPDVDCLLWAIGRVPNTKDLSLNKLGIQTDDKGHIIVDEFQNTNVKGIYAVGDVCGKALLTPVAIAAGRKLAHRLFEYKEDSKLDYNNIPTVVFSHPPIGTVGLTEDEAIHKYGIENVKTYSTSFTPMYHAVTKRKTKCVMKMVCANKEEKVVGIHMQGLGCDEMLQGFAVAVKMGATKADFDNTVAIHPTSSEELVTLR

What was measured:
[1] = test system: NCI's panel of 60 human cancer cell lines; conditions: mean 50% growth inhibition concentration, entire cell line panel; cited from earlier work
[2] = biological target: thioredoxin reductase/thioredoxin (Homo sapiens, UniProt Q16881); test: thioredoxin reductase/thioredoxin-dependent insulin reduction assay; assay type: biochemical; conditions: for IC50 (μg/ml) in TR/Trx Assay: Table I, 30 min preincubation; for IC50TRTrx: Table II; for TR/TRTrx: ratio of IC50 TR alone and IC50 TR/Trx assay; for in vitro IC50 TR/Trx (μg/ml): Table III
glutathione reductase = glutathione reductase (Homo sapiens, UniProt P00390); test: glutathione reductase assay (DTNB reduction); assay type: biochemical; conditions: Table II
thioredoxin reductase = thioredoxin reductase (Homo sapiens, UniProt Q16881); test: thioredoxin reductase assay (DTNB reduction); conditions: for IC50TR: Table II, thioredoxin reductase alone; for GR/TR: ratio of IC50 glutathione reductase to IC50 thioredoxin reductase
leukemia cell line = conditions: mean 50% growth inhibition concentration; cited from earlier work

| SMILES | GI50 (μg/ml) All Tumors [1] [µg/mL] | IC50 (μg/ml) in TR/Trx Assay [2] [µg/mL] | IC50TRTrx [2] [µg/mL] | TR/TRTrx [2] | IC50GR (glutathione reductase) [µg/mL] | IC50TR (thioredoxin reductase) [µg/mL] | GR/TR (thioredoxin reductase) | GI50 (μg/ml) Leukemias (leukemia cell line) [µg/mL] | in vitro IC50 TR/Trx (μg/ml) [2] |
| --- | --- | --- | --- | --- | --- | --- | --- | --- | --- |
| O=C1OC(OC/C(Br)=C(\Br)COC2OC(=O)C(Cl)=C2Cl)C(Cl)=C1Cl (centres unmarked) | 2.7 (≈ 4.93 µM) | 0.84 (≈ 1.53 µM) | 0.84 (≈ 1.53 µM) | 6.0 | 15 (≈ 27.4 µM) | 5 (≈ 9.13 µM) | 3 | 0.4 (≈ 0.73 µM) |  |
| C=C1CC2(OC1=O)c1ccccc1C=Cc1ccccc12 | 0.5 (≈ 1.82 µM) | 25.0 (≈ 91.1 µM) |  |  |  |  |  | 0.1 (≈ 0.365 µM) |  |
| Cn1cnc([N+](=O)[O-])c1Sc1nc2ccccc2o1 | 2.4 (≈ 8.69 µM) | 0.47 (≈ 1.7 µM) | 0.47 (≈ 1.7 µM) | 4.3 | 70 (≈ 253 µM) | 2 (≈ 7.24 µM) | 35 | 0.8 (≈ 2.9 µM) | ≦0.5 μg/ml |
| CCOC(=O)C(=O)CC(=O)C(Br)C(Br)c1ccc(Cl)cc1 (centres unmarked) | 18.4 (≈ 41.8 µM) | 1.9 (≈ 4.31 µM) | 1.89 (≈ 4.29 µM) | 2.7 | 80 (≈ 182 µM) | 5 (≈ 11.4 µM) | 16 | 7.3 (≈ 16.6 µM) | ≦5.0 μg/ml |
| O=[N+]([O-])/C(C(Cl)=C(Cl)Cl)=C(/Cl)Sc1ccccc1 | 0.7 (≈ 2.03 µM) | 0.42 (≈ 1.22 µM) |  |  |  |  |  | 0.1 (≈ 0.29 µM) | ≦0.5 μg/ml |
| Cc1ccc2c(c1)c1ccc3c(c1n2C)C(=O)C=CC3=O | 0.8 (≈ 2.91 µM) | 1.7 (≈ 6.17 µM) | 1.65 (≈ 5.99 µM) | 4.2 | 34 (≈ 123 µM) | 7 (≈ 25.4 µM) | 5 | 0.3 (≈ 1.09 µM) | ≦5.0 μg/ml |
| CC1(c2cccc(C3CCC4(C=CC3=O)OCCO4)c2)OCCO1 (centres unmarked) | 4.0 (≈ 12.1 µM) | 33.0 (≈ 99.9 µM) |  |  |  |  |  | 1.2 (≈ 3.63 µM) |  |
| CC(CCC#N)(CCC#N)C(=O)CC(O)(C(F)(F)F)C(F)(F)F | 1.7 (≈ 4.94 µM) | 10.0 (≈ 29 µM) |  |  |  |  |  | 0.2 (≈ 0.581 µM) | ≦10.0 μg/ml |
| O=S(=O)(/C=C/C=C/S(=O)(=O)c1ccccc1)c1ccccc1 | 0.5 (≈ 1.5 µM) | 40.0 (≈ 120 µM) |  |  |  |  |  | 0.1 (≈ 0.299 µM) |  |
| C=C1C(=O)OC2C1CCC(C)=C1C=CC(=O)C12C (centres unmarked) | 3.1 (≈ 12.7 µM) | 50.0 (≈ 205 µM) |  |  |  |  |  | 1.5 (≈ 6.14 µM) |  |
| O=C1C(Br)=CC2(C=C1Br)CCNc1c(O)c3c4c(c12)=NCCC=4C=N3 | 0.1 (≈ 0.216 µM) | 2.3 (≈ 4.97 µM) |  |  |  |  |  | 0.01 (≈ 0.0216 µM) | ≦5.0 μg/ml |
| c1ccc(P(c2ccccc2)c2ccccc2)cc1 | 3.8 (≈ 14.5 µM) | 7.0 (≈ 26.7 µM) |  |  |  |  |  | 1.1 (≈ 4.19 µM) | ≦10.0 μg/ml |
| O=CN/C=C/c1cc(O)ccc1O | 3.1 (≈ 17.3 µM) | 4.0 (≈ 22.3 µM) |  |  |  |  |  | 1.0 (≈ 5.58 µM) | ≦5.0 μg/ml |
| CC12CCCCC1=C(F)C(F)(F)S2 (centres unmarked) | 7.2 (≈ 34.6 µM) | 6.7 (≈ 32.2 µM) | 6.65 (≈ 31.9 µM) | 7.5 | 35 (≈ 168 µM) | 50 (≈ 240 µM) | 1 | 3.8 (≈ 18.2 µM) | ≦10.0 μg/ml |
| O=C1C=CC2=[N+]([O-])C(c3ccccc3)(c3ccccc3)C(=Nc3ccccc3)C2=C1 | 1.1 (≈ 2.82 µM) | 3.0 (≈ 7.68 µM) |  |  |  |  |  | 22.2 (≈ 56.9 µM) |  |
| O=C1C(Br)=C(c2ccccc2)C(c2ccccc2)=C1c1ccccc1 | 1.5 (≈ 3.87 µM) | 4.0 (≈ 10.3 µM) |  |  |  |  |  | 0.4 (≈ 1.03 µM) | ≦5.0 μg/ml |

| SMILES | GI50 (μg/ml) All Tumors [1] [µg/mL] | IC50 (μg/ml) in TR/Trx Assay [2] [µg/mL] | IC50TRTrx [2] [µg/mL] | TR/TRTrx [2] | IC50GR (glutathione reductase) [µg/mL] | IC50TR (thioredoxin reductase) [µg/mL] | GR/TR (thioredoxin reductase) | GI50 (μg/ml) Leukemias (leukemia cell line) [µg/mL] | in vitro IC50 TR/Trx (μg/ml) [2] |
| --- | --- | --- | --- | --- | --- | --- | --- | --- | --- |
| C=C(CN(C)C)C(=O)c1ccc(OC2OC(COC(C)=O)C(OC(C)=O)C(OC(C)=O)C2OC(C)=O)cc1 (centres unmarked) | 1.7 (≈ 3.17 µM) | 2.0 (≈ 3.73 µM) | 2.00 (≈ 3.73 µM) | 1.5 | 35 (≈ 65.4 µM) | 3 (≈ 5.6 µM) | 12 | 0.1 (≈ 0.187 µM) | ≦5.0 μg/ml |
| O=C(C(=O)n1ncc(Cl)c(Cl)c1=O)n1ncc(Cl)c(Cl)c1=O | 9.9 (≈ 25.8 µM) | 11.0 (≈ 28.6 µM) |  |  |  |  |  | 3.3 (≈ 8.59 µM) |  |
| COC(=O)C1=CC2CC1C(S(=O)(=O)c1ccccc1)C2S(=O)(=O)c1ccccc1 (centres unmarked) | 5.8 (≈ 13.4 µM) | 25.0 (≈ 57.8 µM) |  |  |  |  |  | 1.6 (≈ 3.7 µM) |  |
| CC(C)=CCC(OC(=O)C=C(C)C)C1=CC(=O)c2c(O)ccc(O)c2C1=O (centres unmarked) | 0.3 (≈ 0.81 µM) | 0.63 (≈ 1.7 µM) | 0.63 (≈ 1.7 µM) | 6.4 | 15 (≈ 40.5 µM) | 4 (≈ 10.8 µM) | 4 | 0.1 (≈ 0.27 µM) | ≦1.0 μg/ml |
| O=C1C=CC(=O)c2c1ccc1c3ccccc3n(Cc3cccc([N+](=O)[O-])c3)c21 | 14.9 (≈ 39 µM) | 1.5 (≈ 3.92 µM) | 1.50 (≈ 3.92 µM) | 4.0 | 28 (≈ 73.2 µM) | 6 (≈ 15.7 µM) | 5 | 10.7 (≈ 28 µM) | ≦5.0 μg/ml |
| COc1ccc2c3ccc4c(c3n(C)c2c1)C(=O)C=CC4=O | 9.2 (≈ 31.6 µM) | 16.0 (≈ 54.9 µM) |  |  |  |  |  | 1.1 (≈ 3.78 µM) |  |
| CC(=O)OC1C=C(C=O)C(O)(C=O)C2(C)CCCC(C)(C)C12 (centres unmarked) | 0.3 (≈ 0.973 µM) | 7.0 (≈ 22.7 µM) |  |  |  |  |  | 0.1 (≈ 0.324 µM) | ≦10.0 μg/ml |
| C=C(CN(C)C)C(=O)c1ccccc1Cl | 5.7 (≈ 25.5 µM) | 1.1 (≈ 4.92 µM) | 1.08 (≈ 4.83 µM) | 1.9 | 3 (≈ 13.4 µM) | 2 (≈ 8.94 µM) | 2 | 2.1 (≈ 9.39 µM) | ≦5.0 μg/ml |
| Cn1c2ccccc2c2c(-c3ccccc3)cc3c(c21)C(=O)C=CC3=O | 0.8 (≈ 2.37 µM) | 17.0 (≈ 50.4 µM) |  |  |  |  |  | 0.1 (≈ 0.296 µM) |  |
| C=C1C(=O)O[C@H]2[C@H]1[C@@H](OC(=O)C=C(C)C)CC1=C[C@@H](C[C@@]3(C)O[C@@H]23)OC1=O | 1.3 (≈ 3.47 µM) | 2.1 (≈ 5.61 µM) | 2.08 (≈ 5.56 µM) | 2.4 | 50 (≈ 134 µM) | 5 (≈ 13.4 µM) | 10 | 0.2 (≈ 0.534 µM) | ≦5.0 μg/ml |
| C=C1C(=O)OC2CC(C)C3C=CC(=O)C3CC12 (centres unmarked) | 0.5 (≈ 2.15 µM) | 15.0 (≈ 64.6 µM) |  |  |  |  |  | 0.2 (≈ 0.861 µM) |  |
| C=C1CC(C)(COc2ccc3c(C)cc(=O)oc3c2)OC1=O (centres unmarked) | 0.5 (≈ 1.66 µM) | 35.0 (≈ 117 µM) |  |  |  |  |  | 0.1 (≈ 0.333 µM) |  |
| COc1ccc2c(c1)c1ccc3c(c1n2C)C(=O)C=CC3=O | 1.1 (≈ 3.78 µM) | 35.0 (≈ 120 µM) |  |  |  |  |  | 0.2 (≈ 0.687 µM) |  |
| O=C1C=CC(=O)c2c1ccc1c3ccccc3n(-c3ccccn3)c21 | 8.5 (≈ 26.2 µM) | 2.5 (≈ 7.71 µM) |  |  |  |  |  | 1.8 (≈ 5.55 µM) | ≦5.0 μg/ml |
| C=C1C(=O)C23CC[C@@H]4C(C)(C(=O)OC)CCCC4(C)[C@@H]2CCC1(O)C3 (some centres unmarked) | 0.5 (≈ 1.44 µM) | 1.3 (≈ 3.75 µM) | 1.26 (≈ 3.64 µM) | 5.6 | 30 (≈ 86.6 µM) | 7 (≈ 20.2 µM) | 4 | 0.1 (≈ 0.289 µM) | ≦5.0 μg/ml |
| CN1CN(c2ccccc2)C2(CCN(CCCSc3ccccc3NC(=O)/C=C/c3ccccc3)CC2)C1=O | 2.4 (≈ 4.44 µM) | 10.0 (≈ 18.5 µM) |  |  |  |  |  | 1.9 (≈ 3.51 µM) | ≦10.0 μg/ml |
